Assay: Metabolomics of fetal brain at E14.5
Type: in vivo, C57Bl/6J mice
Settings: E14.5 fetal brain metabolite level; for fold of change ABX/SPF: ANOVA contrast ABX vs SPF; for fold of change GF/ABX: ANOVA contrast GF vs ABX; for fold of change GF/SPF: ANOVA contrast GF vs SPF; for fold of change GF/Sp: ANOVA contrast GF vs Sp; for fold of change Sp/ABX: ANOVA contrast Sp vs ABX; for fold of change Sp/SPF: ANOVA contrast Sp vs SPF

Compound	fold of change ABX/SPF	fold of change GF/ABX	fold of change GF/SPF	fold of change GF/Sp	fold of change Sp/ABX	fold of change Sp/SPF
C[N+](C)(C)[O-] [compound 1793]	0.08	0.48	0.04	0.10	4.61	0.38
CCCCCCCCCCCCCCCC(=O)O[C@H](COC(=O)CCCCCCCCCCCCC)COP(=O)([O-])OCC[N+](C)(C)C [compound 1811]	0.88	0.99	0.86	0.93	1.07	0.93
CCCCC/C=C\C/C=C\C/C=C\C/C=C\CCCC(=O)O[C@H](COC(=O)CCCCCCCCCCCCC)COP(=O)([O-])OCC[N+](C)(C)C [compound 1815]	0.78	1.03	0.80	0.98	1.05	0.82
CCCCCCCCCCCCCCCC(=O)OCC(COP(=O)([O-])OCC[N+](C)(C)C)OC(=O)CCCCCCCCCCCCCCC (stereo not drawn) [compound 1827]	0.86	1.02	0.88	0.97	1.05	0.91
CCCCCC/C=C\CCCCCCCC(=O)O[C@H](COC(=O)CCCCCCCCCCCCCCC)COP(=O)([O-])OCC[N+](C)(C)C [compound 1828]	0.93	0.97	0.90	0.95	1.03	0.95
CCCCCCCCCCCCCCCCCC(=O)O[C@H](COC(=O)CCCCCCCCCCCCCCC)COP(=O)([O-])OCC[N+](C)(C)C [compound 1829]	0.73	1.07	0.79	0.91	1.18	0.87
CCCCCCCC/C=C\CCCCCCCC(=O)O[C@H](COC(=O)CCCCCCCCCCCCCCC)COP(=O)([O-])OCC[N+](C)(C)C [compound 1831]	0.87	1.01	0.88	0.96	1.05	0.91
CCCCC/C=C\C/C=C\CCCCCCCC(=O)O[C@H](COC(=O)CCCCCCCCCCCCCCC)COP(=O)([O-])OCC[N+](C)(C)C [compound 1834]	0.99	1.00	0.99	1.09	0.92	0.91
CCCCC/C=C\C/C=C\C/C=C\CCCCC(=O)O[C@H](COC(=O)CCCCCCCCCCCCCCC)COP(=O)([O-])OCC[N+](C)(C)C [compound 1837]	0.93	1.04	0.96	1.16	0.89	0.83
CC/C=C\C/C=C\C/C=C\CCCCCCCCCC(=O)O[C@H](COC(=O)CCCCCCCCCCCCCCC)COP(=O)([O-])OCC[N+](C)(C)C [compound 1841]	0.97	0.96	0.93	1.14	0.84	0.82
CCCCC/C=C\C/C=C\C/C=C\C/C=C\CCCC(=O)O[C@H](COC(=O)CCCCCCCCCCCCCCC)COP(=O)([O-])OCC[N+](C)(C)C [compound 1845]	0.82	1.02	0.84	0.95	1.08	0.89
CC/C=C\C/C=C\C/C=C\C/C=C\C/C=C\C/C=C\CCC(=O)O[C@H](COC(=O)CCCCCCCCCCCCCCC)COP(=O)([O-])OCC[N+](C)(C)C [compound 1851]	0.78	0.85	0.66	0.87	0.97	0.76
CCCCCCCCCCCCCCCCCC(=O)OCC(COP(=O)([O-])OCC[N+](C)(C)C)OC(=O)CCCCCCCCCCCCCCCCC (stereo not drawn) [compound 1866]	0.56	0.79	0.44	0.66	1.19	0.66
CCCCCCCCC=CCCCCCCCC(=O)OC(COC(=O)CCCCCCCCCCCCCCCCC)COP(=O)([O-])OCC[N+](C)(C)C (stereo not drawn) [compound 1867]	0.84	0.93	0.79	0.90	1.04	0.88
CCCCCC=CCC=CCCCCCCCC(=O)OC(COC(=O)CCCCCCCCCCCCCCCCC)COP(=O)([O-])OCC[N+](C)(C)C (stereo not drawn) [compound 1870]	0.94	1.05	0.99	1.16	0.90	0.85
CCCCC/C=C\C/C=C\C/C=C\C/C=C\CCCC(=O)O[C@H](COC(=O)CCCCCCCCCCCCCCCCC)COP(=O)([O-])OCC[N+](C)(C)C [compound 1878]	0.82	0.93	0.77	0.90	1.04	0.86
CC/C=C\C/C=C\C/C=C\C/C=C\C/C=C\C/C=C\CCC(=O)O[C@H](COC(=O)CCCCCCCCCCCCCCCCC)COP(=O)([O-])OCC[N+](C)(C)C [compound 1884]	0.83	0.84	0.69	0.88	0.95	0.79

From US12491217B2, “Compositions and methods for promoting healthy neural development in an unborn baby” (The Regents of the University of California, priority 2019, dated 2025)
